Taken from: PubChem BioAssay AID1259308 (NCATS, 2017)
This is an unselected part of about 59,000 deposited reagents. In the full data, about 1,510 (2.6%) were called active. 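Calls use total luciferase alone and ignore viability, so some active siRNAs may act by altering cell number.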 The numbers tell different reagents against one gene apart.

Screen: 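Genes whose loss raises luciferase production in HEK293 cells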 (primary screen)
Cell system: human HEK293 embryonic kidney cells stably expressing firefly luciferase (HEK-CMV-Luc2-Hygro)
Reagents: single siRNA against human genes, 0.8 pmol siRNA per well
Time to read-out: 72 h
Read-out: 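Reporter luminescence and viable-cell signal on separate replicate plates, given as percent of non-targeting control and median/MAD z-scores, plus per-cell luciferase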
Direction: total luciferase, z-score and total luciferase, % of control: higher = more reporter protein produced; luciferase per cell, z-score: higher = more reporter output per viable cell; viable cells, % of control: higher = more viable cells
Call rule: 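Active when the median/MAD z-score for overall luciferase is greater than 3; a gene was taken forward for validation with new siRNAs if at least two of its three siRNAs passed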
Calls: active = raised luciferase; inactive = no rise

gene knocked down	reagent	total luciferase, z-score	total luciferase, % of control	luciferase per cell, z-score	viable cells, % of control	outcome
MRPL13 (GeneID 28998)	1	-0.362	74.7	-0.655	99.2	inactive
MRPL13 (GeneID 28998)	2	-1.55	51	-1.43	83	inactive
MRPL13 (GeneID 28998)	3	0.258	87	0.99	74.9	inactive
LETM2 (GeneID 137994)	1	0.153	84.9	-0.319	103	inactive
LETM2 (GeneID 137994)	2	0.297	87.8	-0.0294	98.9	inactive
LETM2 (GeneID 137994)	3	-0.0653	80.6	-1.32	127	inactive
PNMA6B (GeneID 728513)	1	-1.19	58.2	-0.608	76.4	inactive
PNMA6B (GeneID 728513)	2	-0.115	79.6	-0.276	95.7	inactive
PNMA6B (GeneID 728513)	3	-0.638	69.2	-0.869	97.2	inactive
TARP (GeneID 445347)	1	-1.1	60	0.555	57.9	inactive
TARP (GeneID 445347)	2	-1.22	57.7	0.0985	62.8	inactive
TARP (GeneID 445347)	3	1.24	107	2.26	65.7	inactive
STON1 (GeneID 11037)	1	-0.874	64.5	-0.613	84.7	inactive
STON1 (GeneID 11037)	2	-0.0308	81.3	0.482	80	inactive
STON1 (GeneID 11037)	3	-1.74	47.3	-2.28	96.2	inactive
CALHM2 (GeneID 51063)	1	-0.228	77.4	-0.256	92.5	inactive
CALHM2 (GeneID 51063)	2	-0.83	65.4	-0.182	76.6	inactive
CALHM2 (GeneID 51063)	3	-0.256	76.8	0.0839	83.9	inactive
HTR2C (GeneID 3358)	1	-0.775	66.5	-0.889	93.9	inactive
HTR2C (GeneID 3358)	2	-0.443	73.1	-0.283	88	inactive
HTR2C (GeneID 3358)	3	2.37	129	1.97	85.8	inactive
BTN3A1 (GeneID 11119)	1	0.0781	83.4	-0.21	98.5	inactive
BTN3A1 (GeneID 11119)	2	0.306	88	0.0896	96	inactive
BTN3A1 (GeneID 11119)	3	-0.113	79.6	-0.46	100	inactive
BMP2KL (GeneID 347359)	1	0.227	86.4	0.151	92.8	inactive
BMP2KL (GeneID 347359)	2	2.71	136	1.65	98.3	inactive
BMP2KL (GeneID 347359)	3	0.701	95.8	0.0933	104	inactive
MS4A5 (GeneID 64232)	1	-1.17	58.7	-1.35	93.4	inactive
MS4A5 (GeneID 64232)	2	0.728	96.4	0.859	85.9	inactive
MS4A5 (GeneID 64232)	3	0.582	93.5	0.339	95.5	inactive
DSCR10 (GeneID 259234)	1	-0.55	70.9	-0.145	82.4	inactive
DSCR10 (GeneID 259234)	2	0.117	84.2	0.55	81.4	inactive
DSCR10 (GeneID 259234)	3	-0.699	68	-1.25	106	inactive
RAD51B (GeneID 5890)	1	-1.08	60.4	-0.95	86.7	inactive
RAD51B (GeneID 5890)	2	-0.544	71.1	-0.493	90.4	inactive
RAD51B (GeneID 5890)	3	-0.946	63.1	-1.23	97.5	inactive
KLHL10 (GeneID 317719)	1	-0.627	69.4	-0.351	85.1	inactive
KLHL10 (GeneID 317719)	2	-0.445	73	-0.544	94.2	inactive
KLHL10 (GeneID 317719)	3	-0.277	76.4	1.64	55.4	inactive
COX7A1 (GeneID 1346)	1	-0.332	75.3	-0.697	101	inactive
COX7A1 (GeneID 1346)	2	-0.685	68.3	-0.243	81.3	inactive
COX7A1 (GeneID 1346)	3	-0.91	63.8	-0.762	87.1	inactive
CATSPER2 (GeneID 117155)	1	0.224	86.4	0.199	91.6	inactive
CATSPER2 (GeneID 117155)	2	-0.874	64.5	-1.13	96.9	inactive
CATSPER2 (GeneID 117155)	3	-0.135	79.2	-0.513	101	inactive
EIF3J (GeneID 8669)	1	-0.806	65.8	-1.21	101	inactive
EIF3J (GeneID 8669)	2	-0.628	69.4	-0.743	94.3	inactive
EIF3J (GeneID 8669)	3	-0.919	63.6	-0.388	78.7	inactive
ASB16 (GeneID 92591)	1	-0.712	67.7	-1.08	101	inactive
ASB16 (GeneID 92591)	2	0.476	91.4	1.3	72.6	inactive
ASB16 (GeneID 92591)	3	-0.895	64.1	-0.622	84.3	inactive
CELF3 (GeneID 11189)	1	-2.97	22.8	-2.38	47.6	inactive
CELF3 (GeneID 11189)	2	0.157	85	0.529	82.7	inactive
CELF3 (GeneID 11189)	3	0.17	85.3	-0.446	107	inactive
IGFBPL1 (GeneID 347252)	1	-0.722	67.5	0.34	69	inactive
IGFBPL1 (GeneID 347252)	2	0.101	83.9	0.27	87.3	inactive
IGFBPL1 (GeneID 347252)	3	-1.97	42.8	-1.03	62.6	inactive
RAX (GeneID 30062)	1	-1.08	60.4	-0.73	81.8	inactive
RAX (GeneID 30062)	2	-0.531	71.3	-0.748	97	inactive
RAX (GeneID 30062)	3	0.151	84.9	-0.505	108	inactive
ANKRD28 (GeneID 23243)	1	6.04	202	3.77	83.7	active
ANKRD28 (GeneID 23243)	2	-1.15	59.1	-2.07	114	inactive
ANKRD28 (GeneID 23243)	3	0.294	87.7	0.764	80.2	inactive
PFDN6 (GeneID 10471)	1	-1.63	49.4	-1.74	87.3	inactive
PFDN6 (GeneID 10471)	2	-0.776	66.4	-0.522	85.2	inactive
PFDN6 (GeneID 10471)	3	-0.821	65.6	-0.851	91.6	inactive
DEFB131A (GeneID 644414)	1	0.161	85.1	-0.214	101	inactive
DEFB131A (GeneID 644414)	2	0.656	94.9	1.43	72.8	inactive
DEFB131A (GeneID 644414)	3	-1.09	60.2	-1.06	88.9	inactive
ITPRID2 (GeneID 6744)	1	-0.368	74.6	0.251	78	inactive
ITPRID2 (GeneID 6744)	2	-0.169	78.5	-0.347	96.2	inactive
ITPRID2 (GeneID 6744)	3	-1.43	53.5	-1.4	86.4	inactive
POU4F2 (GeneID 5458)	1	-1.78	46.4	-2.1	90.1	inactive
POU4F2 (GeneID 5458)	2	-0.0915	80.1	0.114	86.8	inactive
POU4F2 (GeneID 5458)	3	1.58	113	1.36	88.5	inactive
